Test [1] deals with T1, V5-tagged PRICKLE2 (human) (UniProt Q7Z3G6).
T1 sequence: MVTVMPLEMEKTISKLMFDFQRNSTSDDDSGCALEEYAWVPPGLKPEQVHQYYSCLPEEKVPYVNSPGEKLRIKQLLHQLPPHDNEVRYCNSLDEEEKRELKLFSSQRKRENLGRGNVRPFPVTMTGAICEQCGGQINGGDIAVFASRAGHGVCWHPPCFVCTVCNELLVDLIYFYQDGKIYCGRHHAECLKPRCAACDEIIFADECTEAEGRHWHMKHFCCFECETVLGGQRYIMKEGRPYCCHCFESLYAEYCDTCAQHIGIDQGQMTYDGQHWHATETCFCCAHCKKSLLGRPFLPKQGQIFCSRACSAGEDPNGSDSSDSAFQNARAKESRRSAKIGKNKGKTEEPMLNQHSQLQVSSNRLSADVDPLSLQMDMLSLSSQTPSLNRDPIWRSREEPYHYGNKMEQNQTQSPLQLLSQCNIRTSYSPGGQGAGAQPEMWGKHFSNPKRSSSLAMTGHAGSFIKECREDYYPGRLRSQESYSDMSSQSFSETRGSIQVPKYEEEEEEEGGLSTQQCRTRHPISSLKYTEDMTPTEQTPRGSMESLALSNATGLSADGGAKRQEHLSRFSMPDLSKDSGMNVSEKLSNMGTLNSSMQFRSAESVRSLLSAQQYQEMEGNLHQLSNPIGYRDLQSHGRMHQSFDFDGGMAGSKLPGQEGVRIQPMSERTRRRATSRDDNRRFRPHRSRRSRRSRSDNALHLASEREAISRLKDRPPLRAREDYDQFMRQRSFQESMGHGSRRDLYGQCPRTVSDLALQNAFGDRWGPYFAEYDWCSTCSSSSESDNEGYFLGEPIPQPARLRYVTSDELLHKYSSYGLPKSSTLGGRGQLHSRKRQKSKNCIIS
Nature of the test: co-IP; anti-V5 IP of overexpressed V5-PRICKLE1-3 from HEK293 lysate (50 mM Tris pH 7.6, 200 mM NaCl, 1 mM EDTA, 0.5% NP40); Western blot for VANGL1-myc, VANGL2-HA or endogenous DVL2/DVL3. (In general: A western blot detects proteins with antibodies after separation by electrophoresis.)

Sequences of proteins named here, by UniProt entry; tags and fusion partners are left off. Residues count along the entry.
UniProt Q68DV7, residues 24-783: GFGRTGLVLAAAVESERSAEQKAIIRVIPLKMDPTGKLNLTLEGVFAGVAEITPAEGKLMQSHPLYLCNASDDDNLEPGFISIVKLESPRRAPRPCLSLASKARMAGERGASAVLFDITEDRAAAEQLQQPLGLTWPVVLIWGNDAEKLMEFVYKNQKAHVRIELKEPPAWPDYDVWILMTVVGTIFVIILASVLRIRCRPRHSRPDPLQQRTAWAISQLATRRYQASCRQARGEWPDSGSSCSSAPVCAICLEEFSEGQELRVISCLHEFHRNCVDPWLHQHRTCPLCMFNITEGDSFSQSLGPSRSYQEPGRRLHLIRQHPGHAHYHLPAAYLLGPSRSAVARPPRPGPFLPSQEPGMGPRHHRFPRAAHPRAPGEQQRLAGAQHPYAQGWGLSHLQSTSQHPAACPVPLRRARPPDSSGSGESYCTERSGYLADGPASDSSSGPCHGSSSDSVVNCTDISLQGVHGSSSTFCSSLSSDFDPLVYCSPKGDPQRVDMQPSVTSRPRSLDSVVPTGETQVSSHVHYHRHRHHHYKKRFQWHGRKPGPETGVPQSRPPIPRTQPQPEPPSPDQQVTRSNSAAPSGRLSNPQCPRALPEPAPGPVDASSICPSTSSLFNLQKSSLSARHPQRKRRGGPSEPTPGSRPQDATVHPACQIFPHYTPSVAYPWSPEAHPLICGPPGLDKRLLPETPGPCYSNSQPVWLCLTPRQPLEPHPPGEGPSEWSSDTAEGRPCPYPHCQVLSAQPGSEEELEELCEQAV

Test [2] has as its target T2, V5-tagged PRICKLE1 (human) (UniProt Q96MT3).
T2 sequence: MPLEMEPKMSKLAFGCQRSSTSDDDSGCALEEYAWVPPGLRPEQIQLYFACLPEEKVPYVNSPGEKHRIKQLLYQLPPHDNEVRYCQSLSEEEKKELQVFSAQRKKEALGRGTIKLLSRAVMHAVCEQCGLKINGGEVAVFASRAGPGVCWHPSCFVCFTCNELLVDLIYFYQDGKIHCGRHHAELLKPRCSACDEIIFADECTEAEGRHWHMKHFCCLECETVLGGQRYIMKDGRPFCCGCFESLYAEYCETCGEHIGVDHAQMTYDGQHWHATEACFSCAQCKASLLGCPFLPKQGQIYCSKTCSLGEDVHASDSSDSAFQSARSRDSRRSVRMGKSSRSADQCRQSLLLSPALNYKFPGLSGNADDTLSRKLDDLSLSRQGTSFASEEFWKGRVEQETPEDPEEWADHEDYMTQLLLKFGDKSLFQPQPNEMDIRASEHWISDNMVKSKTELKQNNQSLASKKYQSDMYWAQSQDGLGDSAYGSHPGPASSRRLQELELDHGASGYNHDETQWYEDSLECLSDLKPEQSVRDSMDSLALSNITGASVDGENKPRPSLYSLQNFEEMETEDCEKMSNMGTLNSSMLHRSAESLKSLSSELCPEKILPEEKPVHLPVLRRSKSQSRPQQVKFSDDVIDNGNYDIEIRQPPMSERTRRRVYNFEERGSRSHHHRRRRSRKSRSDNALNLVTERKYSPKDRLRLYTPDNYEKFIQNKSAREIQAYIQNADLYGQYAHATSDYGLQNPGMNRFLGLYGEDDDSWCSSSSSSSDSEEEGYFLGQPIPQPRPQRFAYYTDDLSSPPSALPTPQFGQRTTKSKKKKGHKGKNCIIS
The description is as above.

The target in test [3] is T3, V5-tagged PRICKLE3 (human) (UniProt O43900).
T3 sequence: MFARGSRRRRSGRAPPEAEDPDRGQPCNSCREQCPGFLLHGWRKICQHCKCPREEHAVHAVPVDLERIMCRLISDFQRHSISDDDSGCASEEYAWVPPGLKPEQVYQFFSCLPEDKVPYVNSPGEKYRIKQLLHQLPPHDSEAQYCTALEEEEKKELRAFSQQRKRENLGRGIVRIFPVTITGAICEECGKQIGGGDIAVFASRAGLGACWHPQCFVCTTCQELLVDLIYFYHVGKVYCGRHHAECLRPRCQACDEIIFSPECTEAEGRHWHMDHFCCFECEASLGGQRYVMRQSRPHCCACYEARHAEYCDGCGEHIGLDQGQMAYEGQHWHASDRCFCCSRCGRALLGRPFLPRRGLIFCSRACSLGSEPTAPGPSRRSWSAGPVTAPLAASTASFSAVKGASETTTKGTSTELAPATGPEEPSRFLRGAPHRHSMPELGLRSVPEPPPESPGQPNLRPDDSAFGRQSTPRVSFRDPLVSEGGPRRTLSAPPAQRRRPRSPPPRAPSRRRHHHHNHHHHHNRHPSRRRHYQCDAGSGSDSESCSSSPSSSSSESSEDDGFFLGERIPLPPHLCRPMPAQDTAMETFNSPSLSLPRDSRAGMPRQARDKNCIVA
Described as above.

The target of test [4] is T4, HA-tagged PRICKLE3 (human) (UniProt O43900).
T4 sequence: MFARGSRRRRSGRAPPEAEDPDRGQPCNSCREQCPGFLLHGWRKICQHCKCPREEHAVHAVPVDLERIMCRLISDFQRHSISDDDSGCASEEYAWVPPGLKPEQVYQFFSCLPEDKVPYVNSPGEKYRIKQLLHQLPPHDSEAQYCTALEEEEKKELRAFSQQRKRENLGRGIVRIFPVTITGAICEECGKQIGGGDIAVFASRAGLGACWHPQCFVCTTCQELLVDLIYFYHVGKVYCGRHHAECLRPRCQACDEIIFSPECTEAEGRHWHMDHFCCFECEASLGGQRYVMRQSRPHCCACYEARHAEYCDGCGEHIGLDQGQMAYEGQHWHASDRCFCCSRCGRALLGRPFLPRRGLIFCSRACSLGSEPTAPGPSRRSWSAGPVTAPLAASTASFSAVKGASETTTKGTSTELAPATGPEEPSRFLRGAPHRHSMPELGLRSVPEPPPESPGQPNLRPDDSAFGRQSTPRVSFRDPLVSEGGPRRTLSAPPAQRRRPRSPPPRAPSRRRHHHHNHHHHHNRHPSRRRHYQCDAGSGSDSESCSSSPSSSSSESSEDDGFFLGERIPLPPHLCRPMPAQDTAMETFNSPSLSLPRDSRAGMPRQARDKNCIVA
Nature of the test: co-IP; anti-HA IP (IgG control) from HEK T-REx 293 PRICKLE3 or PRICKLE1 TetON cells induced overnight with doxycycline; Western blot for endogenous proteins.

The target in test [5] is T5, HA-tagged PRICKLE1 (human) (UniProt Q96MT3).
T5 sequence: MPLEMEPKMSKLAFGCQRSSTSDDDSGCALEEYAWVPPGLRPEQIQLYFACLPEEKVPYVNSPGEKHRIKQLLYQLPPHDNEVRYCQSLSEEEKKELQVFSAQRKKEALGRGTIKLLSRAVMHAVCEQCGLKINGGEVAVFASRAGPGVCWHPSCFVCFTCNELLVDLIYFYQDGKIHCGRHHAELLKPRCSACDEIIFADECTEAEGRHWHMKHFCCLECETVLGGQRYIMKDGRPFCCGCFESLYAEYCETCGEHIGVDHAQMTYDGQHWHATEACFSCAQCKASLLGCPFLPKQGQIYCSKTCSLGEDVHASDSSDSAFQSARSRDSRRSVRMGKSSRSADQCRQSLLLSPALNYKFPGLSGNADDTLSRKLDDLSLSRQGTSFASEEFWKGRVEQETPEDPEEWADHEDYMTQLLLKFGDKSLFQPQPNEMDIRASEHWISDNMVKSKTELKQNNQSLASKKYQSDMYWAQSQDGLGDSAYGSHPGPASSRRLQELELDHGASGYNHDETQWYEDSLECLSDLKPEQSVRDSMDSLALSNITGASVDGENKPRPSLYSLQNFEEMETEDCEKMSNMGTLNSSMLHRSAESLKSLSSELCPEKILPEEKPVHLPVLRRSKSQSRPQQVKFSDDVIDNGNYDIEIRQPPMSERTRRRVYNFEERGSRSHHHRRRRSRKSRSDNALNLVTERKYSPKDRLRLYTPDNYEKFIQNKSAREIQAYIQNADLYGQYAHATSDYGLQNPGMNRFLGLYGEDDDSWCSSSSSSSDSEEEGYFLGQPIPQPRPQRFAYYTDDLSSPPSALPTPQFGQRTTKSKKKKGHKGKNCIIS
The description is as above.

For test [6], the target named is RNF43-FLAG (human) (UniProt Q68DV7). Briefly: co-IP; HEK T-REx 293 PRICKLE3 TetON cells transfected with RNF43-FLAG and EGFP-VANGL2, with or without overnight doxycycline induction of HA-PRICKLE3; Western blot, endogenous CK1ε quantified by densitometry.
Test [7] has the same target. Nature of the test: co-IP; HA-PRICKLE3 and FLAG-tagged RNF43 co-expressed in HEK293 wild-type cells (no VANGL2 transfected); IP with anti-HA or anti-FLAG; Western blot.

These are yes or no findings as the source states them, for the method shown. Binding seen in cells or lysates may run through a third protein. Some entries that bind do so weakly or less than the wild type. Where a sequence is shown, tags or fusion partners need not be part of it.

B1: VANGL1-myc (protein, UniProt Q8TAA9 1-524)
chain: MDTESTYSGYSYYSSHSKKSHRQGERTRERHKSPRNKDGRGSEKSVTIQPPTGEPLLGNDSTRTEEVQDDNWGETTTAITGTSEHSISQEDIARISKDMEDSVGLDCKRYLGLTVASFLGLLVFLTPIAFILLPPILWRDELEPCGTICEGLFISMAFKLLILLIGTWALFFRKRRADMPRVFVFRALLLVLIFLFVVSYWLFYGVRILDSRDRNYQGIVQYAVSLVDALLFIHYLAIVLLELRQLQPMFTLQVVRSTDGESRFYSLGHLSIQRAALVVLENYYKDFTIYNPNLLTASKFRAAKHMAGLKVYNVDGPSNNATGQSRAMIAAAARRRDSSHNELYYEEAEHERRVKKRKARLVVAVEEAFIHIQRLQAEEQQKAPGEVMDPREAAQAIFPSMARALQKYLRITRQQNYHSMESILQHLAFCITNGMTPKAFLERYLSAGPTLQYDKDRWLSTQWRLVSDEAVTNGLRDGIVFVLKCLDFSLVVNVKKIPFIILSEEFIDPKSHKFVLRLQSETSV
Regarding B1, the binding entry in test [1], in test [2] and in test [3] was “binds” throughout.

B2: VANGL1 (endogenous) (protein, UniProt Q8TAA9 1-524)
chain: MDTESTYSGYSYYSSHSKKSHRQGERTRERHKSPRNKDGRGSEKSVTIQPPTGEPLLGNDSTRTEEVQDDNWGETTTAITGTSEHSISQEDIARISKDMEDSVGLDCKRYLGLTVASFLGLLVFLTPIAFILLPPILWRDELEPCGTICEGLFISMAFKLLILLIGTWALFFRKRRADMPRVFVFRALLLVLIFLFVVSYWLFYGVRILDSRDRNYQGIVQYAVSLVDALLFIHYLAIVLLELRQLQPMFTLQVVRSTDGESRFYSLGHLSIQRAALVVLENYYKDFTIYNPNLLTASKFRAAKHMAGLKVYNVDGPSNNATGQSRAMIAAAARRRDSSHNELYYEEAEHERRVKKRKARLVVAVEEAFIHIQRLQAEEQQKAPGEVMDPREAAQAIFPSMARALQKYLRITRQQNYHSMESILQHLAFCITNGMTPKAFLERYLSAGPTLQYDKDRWLSTQWRLVSDEAVTNGLRDGIVFVLKCLDFSLVVNVKKIPFIILSEEFIDPKSHKFVLRLQSETSV
Regarding B2, the binding result in test [4] and in test [5] was “binds” throughout.

B3: HA-tagged PRICKLE3 (protein, UniProt O43900 1-615)
chain: MFARGSRRRRSGRAPPEAEDPDRGQPCNSCREQCPGFLLHGWRKICQHCKCPREEHAVHAVPVDLERIMCRLISDFQRHSISDDDSGCASEEYAWVPPGLKPEQVYQFFSCLPEDKVPYVNSPGEKYRIKQLLHQLPPHDSEAQYCTALEEEEKKELRAFSQQRKRENLGRGIVRIFPVTITGAICEECGKQIGGGDIAVFASRAGLGACWHPQCFVCTTCQELLVDLIYFYHVGKVYCGRHHAECLRPRCQACDEIIFSPECTEAEGRHWHMDHFCCFECEASLGGQRYVMRQSRPHCCACYEARHAEYCDGCGEHIGLDQGQMAYEGQHWHASDRCFCCSRCGRALLGRPFLPRRGLIFCSRACSLGSEPTAPGPSRRSWSAGPVTAPLAASTASFSAVKGASETTTKGTSTELAPATGPEEPSRFLRGAPHRHSMPELGLRSVPEPPPESPGQPNLRPDDSAFGRQSTPRVSFRDPLVSEGGPRRTLSAPPAQRRRPRSPPPRAPSRRRHHHHNHHHHHNRHPSRRRHYQCDAGSGSDSESCSSSPSSSSSESSEDDGFFLGERIPLPPHLCRPMPAQDTAMETFNSPSLSLPRDSRAGMPRQARDKNCIVA
As to B3, the binding entry in the test with RNF43-FLAG (human) [6] and with RNF43-FLAG (human) [7] was “binds” throughout.

These data come from paper PMC12859043.
